Reference: patent publication US20210301026A1 (ULTRAHUMAN TWELVE, published 2021)
These are yes or no findings as the source states them, for the method shown. Some entries that bind do so weakly or less than the wild type.

Chains of the proteins cited; added tags and fusions are not shown. Lines headed by an entry give the natural chain unless they say otherwise; changes in a name come on top. A line that says so, or that is headed by a name, gives the form on record, which may keep a tag or linker.
rhesus CSF1R, membrane-presented on HEK-293 cells (H9FQ91, form named): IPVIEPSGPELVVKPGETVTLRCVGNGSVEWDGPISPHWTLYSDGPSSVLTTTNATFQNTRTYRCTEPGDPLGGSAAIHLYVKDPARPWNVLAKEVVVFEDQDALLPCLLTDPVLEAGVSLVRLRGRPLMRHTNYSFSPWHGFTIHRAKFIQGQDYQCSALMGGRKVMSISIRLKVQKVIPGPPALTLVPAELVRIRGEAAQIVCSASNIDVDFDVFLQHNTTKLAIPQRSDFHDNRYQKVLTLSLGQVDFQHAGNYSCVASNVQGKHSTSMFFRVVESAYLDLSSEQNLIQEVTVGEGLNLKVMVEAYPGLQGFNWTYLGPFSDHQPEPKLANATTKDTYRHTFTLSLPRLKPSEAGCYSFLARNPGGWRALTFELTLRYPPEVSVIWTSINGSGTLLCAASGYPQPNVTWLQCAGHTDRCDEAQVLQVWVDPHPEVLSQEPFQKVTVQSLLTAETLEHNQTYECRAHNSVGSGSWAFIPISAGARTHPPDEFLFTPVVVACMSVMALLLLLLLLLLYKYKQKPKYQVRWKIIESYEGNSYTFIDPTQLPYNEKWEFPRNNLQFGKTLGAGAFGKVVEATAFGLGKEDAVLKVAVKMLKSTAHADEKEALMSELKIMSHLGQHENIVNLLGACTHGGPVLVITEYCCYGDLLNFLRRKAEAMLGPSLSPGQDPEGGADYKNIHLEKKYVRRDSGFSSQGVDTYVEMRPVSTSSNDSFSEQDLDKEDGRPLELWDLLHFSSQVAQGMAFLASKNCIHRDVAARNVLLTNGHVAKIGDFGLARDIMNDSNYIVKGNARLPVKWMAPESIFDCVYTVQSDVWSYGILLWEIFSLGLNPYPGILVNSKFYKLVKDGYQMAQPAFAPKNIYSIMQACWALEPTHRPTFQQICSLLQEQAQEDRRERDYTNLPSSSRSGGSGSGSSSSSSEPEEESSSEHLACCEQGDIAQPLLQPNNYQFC
UniProt P07333: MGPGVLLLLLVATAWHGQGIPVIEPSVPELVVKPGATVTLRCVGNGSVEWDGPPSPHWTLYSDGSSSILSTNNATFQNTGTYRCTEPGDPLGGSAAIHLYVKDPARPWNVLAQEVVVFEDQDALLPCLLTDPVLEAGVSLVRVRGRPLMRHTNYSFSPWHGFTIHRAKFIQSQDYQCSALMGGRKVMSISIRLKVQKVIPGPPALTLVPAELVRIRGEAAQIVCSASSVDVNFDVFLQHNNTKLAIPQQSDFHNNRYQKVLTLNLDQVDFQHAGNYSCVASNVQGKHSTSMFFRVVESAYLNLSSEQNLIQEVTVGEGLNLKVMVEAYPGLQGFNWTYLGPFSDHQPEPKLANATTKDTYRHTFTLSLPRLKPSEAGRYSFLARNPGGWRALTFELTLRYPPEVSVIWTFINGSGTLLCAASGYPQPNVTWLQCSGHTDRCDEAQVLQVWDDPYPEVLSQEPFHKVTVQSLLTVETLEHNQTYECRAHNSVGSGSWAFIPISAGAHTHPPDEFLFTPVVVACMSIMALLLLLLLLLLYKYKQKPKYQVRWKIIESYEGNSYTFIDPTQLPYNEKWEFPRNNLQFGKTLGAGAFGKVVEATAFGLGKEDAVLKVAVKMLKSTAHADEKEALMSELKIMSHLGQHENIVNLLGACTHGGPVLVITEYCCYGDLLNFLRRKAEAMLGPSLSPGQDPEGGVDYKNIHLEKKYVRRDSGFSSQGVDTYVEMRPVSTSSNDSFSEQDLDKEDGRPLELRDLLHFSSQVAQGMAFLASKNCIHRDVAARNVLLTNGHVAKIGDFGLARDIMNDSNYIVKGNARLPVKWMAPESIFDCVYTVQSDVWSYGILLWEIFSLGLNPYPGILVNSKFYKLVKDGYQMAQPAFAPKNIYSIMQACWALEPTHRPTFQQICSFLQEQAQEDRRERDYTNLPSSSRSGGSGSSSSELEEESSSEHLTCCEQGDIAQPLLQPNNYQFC

Tests used:
[1] = biological target: rhesus CSF1R, membrane-presented on HEK-293 cells (rhesus monkey) (UniProt H9FQ91); assay: flow cytometry on HEK-293 cells expressing rhesus CSF1R, MFI
[2] = biological target: rhesus CSF1R, membrane-presented on HEK-293 cells (rhesus monkey) (UniProt H9FQ91); assay: flow cytometry, transfected HEK-293 cells
[3] = biological target: cynomolgus monkey CSF1R human Fc tagged recombinant protein (cynomolgus monkey); assay: direct titration ELISA, IgG4(S228P) on coated CSF1R-Fc
[4] = biological target: human CSF1R human Fc tagged recombinant protein (human) (UniProt P07333); assay: as above
[5] = biological target: cynomolgus monkey CSF1R human Fc tagged recombinant protein (cynomolgus monkey); assay: direct titration ELISA on coated cyno CSF1R-Fc, IgG4(S228P) format, OD 450 nm
[6] = biological target: human CSF1R human Fc tagged recombinant protein (human) (UniProt P07333); assay: direct titration ELISA on coated human CSF1R-Fc, IgG4(S228P) format, OD 450 nm

Binder | binding [1] | binding [3] | binding [5] | also measured
MH1 (antibody, V domains shown) VH: QVQLVQSGAEVKKPGSSVKVSCKASGGTFSSYYIIWVRQAPGQGLEWMGDINPYNGTANYAQKFQGRVTITADESTSTAYMELSSLRSEDTAVYYCAREGPYFSNLYVMDYWGQGTLVTVSS VL: EIVLTQSPATLSLSPGERATLSCRASQSVSYQGENYLAWYQQKPGQAPRLLIYDASNRATGIPARFSGSGSGTDFTLTISSLEPEDFAVYYCQLSNQDLLTFGGGTKVEIK | – | binds | binds | binding [4]: binds; binding [6]: binds
MH5 (antibody, human IgG4, V domains shown, Designer (maximally humanized) clone; tested as human IgG4(S228P)/Ckappa IgG; also called mAb-2) VH: QVQLVQSGAEVKKPGSSVKVSCKASGYTFSSYYMIWVRQAPGQGLEWMGDINPYNGGANYAQKFQGRVTITADESTSTAYMELSSLRSEDTAVYYCAREGPYFSNLYVMDYWGQGTLVTVSS VL: EIVLTQSPATLSLSPGERATLSCRASQSVSYEGENYLNWYQQKPGQAPRLLIYAASNRATGIPARFSGSGSGTDFTLTISSPEPEDFAVYYCQLSNEDLLTFGGGTKVEIK | binds | – | – | –
MH2 (antibody, V domains shown) VH: QVQLVQSGAEVKKPGSSVKVSCKASGGTFSSYYIIWVRQAPGQGLEWMGDINPYNGTANYAQKFQGRVTITADESTSTAYMELSSLRSEDTAVYYCAREGPYFSNLYVMDYWGQGTLVTVSS VL: EIVLTQSPATLSLSPGERATLSCRASQSVSYEGENYLNWYQQKPGQAPRLLIYAASNRATGIPARFSGSGSGTDFTLTISSPEPEDFAVYYCQLSNEDLLTFGGGTKVEIK | – | binds | binds | –
29D10 (antibody, human IgG4, V domains shown, Library-derived clone, tested as human IgG4(S228P)/Ckappa IgG; framework residue limits counted on the grafts) VH: QVQLVQSGAEVKKPGSSVKVSCKASGYTFTSYYMIWVRQAPGQGLEWMGDINPYNGGANFAQKFQGRVTITADESTSTAYMELSSLRSEDTAVYYCAREGPYFSNLYVMDYWGQGTLVTVSS VL: EIVLTQSPATLSLSPGERATLSCRASQSVSYEGENYLNWYQQKPGQAPRLLIYAASNRATGIPARFSGSGSGTDFTLTISSLEPEDFAVYYCQLSNEDLLTFGGGTKVEIK | binds | – | – | –
29H09 (antibody, human IgG4, V domains shown, Library-derived clone, tested as human IgG4(S228P)/Ckappa IgG; framework residue limits counted on the grafts) VH: QVQLVQSGAEVKKPGSSVKVSCKASGYTFTSYYMIWVRQAPGQGLEWMGDINPYNGGANYAQKFQGRVTITADESTSTAYMELSSLRSEDTAVYYCAREGPYFSNLYVMDYWGQGTLVTVSS VL: EIVLTQSPATLSLSPGERATLSCRASQSVSYEGENYLNWYQQKPGQAPRLLIYAASNRATGIPARFSGSGSGTDFTLTISSLEPEDFAVYYCQLSNEDLLTFGGGTKVEIK | binds | – | – | –
30E06 (antibody, human IgG4, V domains shown, Library-derived clone; tested as human IgG4(S228P) / human Ckappa IgG; also called 30E6; mAb-3) VH: QVQLVQSGAEVKKPGSSVKVSCKASGYTFTSYYMIWVRQAPGQGLEWMGDINPYNGGTTYAQKFQGRVTITADESTSTAYMELSSLRSEDTAVYYCAREGPYFSNLYVMDYWGQGTLVTVSS VL: EIVLTQSPATLSLSPGERATLSCRASQSVSYEGENYLAWYQQKPGQAPRLLIYAASNLATGIPARFSGSGSGTDFTLTISSLEPEDFAVYYCQLSNEDLLTFGGGTKVEIK | binds | – | – | –
30D02 (antibody, human IgG4, V domains shown, Library-derived clone, tested as human IgG4(S228P)/Ckappa IgG; framework residue limits counted on the grafts) VH: QVQLVQSGAEVKKPGSSVKVSCKASGYTFSSYYMIWVRQAPGQGLEWMGDINPYNGGTTYAQKFQGRVTITADESTSTAYMELSSLRSEDTAVYYCAREGPYFSNLYVMDYWGQGTLVTVSS VL: EIVLTQSPATLSLSPGERATLSCRASQSVEYQGENYLNWYQQKPGQAPRLLIYAASNRATGIPARFSGSGSGTDFTLTISSLEPEDFAVYYCQLSNQDLLTFGGGTKVEIK | binds | – | – | –
29B07 (antibody, human IgG4, V domains shown, Library-derived clone, tested as human IgG4(S228P)/Ckappa IgG; framework residue limits counted on the grafts) VH: QVQLVQSGAEVKKPGSSVKVSCKASGYTFTSYYIIWVRQAPGQGLEWMGDINPYNGGATYAQKFQGRVTITADESTSTAYMELSSLRSEDTAVYYCAREPPYFSNLYVMDYWGQGTLVTVSS VL: EIVLTQSPATLSLSPGERATLSCRASQSVEYEGDNYLNWYQQKPGQAPRLLIYAASNRATGIPARFSGSGSGTDFTLTISSLEPEDFAVYYCQLSNQDLLTFGGGTKVEIK | binds | – | – | –
26B07 (antibody, human IgG4, V domains shown, Library-derived clone, tested as human IgG4(S228P)/Ckappa IgG; framework residue limits counted on the grafts) VH: QVQLVQSGAEVKKPGSSVKVSCKASGYTFSSYYMIWVRQAPGQGLEWMGDINPYNGGANYAQKFQGRVTITADESTSTAYMELSSLRSEDTAVYYCAREGPYFSNLYVMDYWGQGTLVTVSS VL: EIVLTQSPATLSLSPGERATLSCRASQSVEYQGDNYLNWYQQKPGQAPRLLIYAASNRATGIPARFSGSGSGTDFTLTISSLEPEDFAVYYCQLSNEDLLTFGGGTKVEIK | binds | – | – | –
29A03 (antibody, human IgG4, V domains shown, Library-derived clone, tested as human IgG4(S228P)/Ckappa IgG; framework residue limits counted on the grafts) VH: QVQLVQSGAEVKKPGSSVKVSCKASGYTFSSNYMIWVRQAPGQGLEWMGDINPYNGGATYNQKFQGRVTITADESTSTAYMELSSLRSEDTAVYYCAREPPYFSNLYVMDYWGQGTLVTVSS VL: EIVLTQSPATLSLSPGERATLSCRASQSVEYEGENYLNWYQQKPGQAPRLLIYAASNRATGIPARFSGSGSGTDFTLTISSLEPEDFAVYYCQLSNQDLLTFGGGTKVEIK | binds | – | – | –

Continued, in another order:

binding [1] | binding [3] | binding [5] | Binder | also measured
binds | – | – | murine anti-CSF1R antibody 0301 (mu0301), v-domains in human IgG4(S228P) format (antibody, V domains shown) VH: EVQLQQSGPELVRPGASVKMSCKASGYTFTDNYMIWVKQSHGKSLEWIGDINPYNGGTTFNQKFKGKATLTVEKSSSTAYMQLNSLTSEDSAVYYCARESPYFSNLYVMDYWGQGTSVTVSS VL: NIVLTQSPASLAVSLGQRATISCKASQSVDYDGDNYMNWYQQKPGQPPKLLIYAASNLESGIPARFSGSGSGTDFTLNIHPVEEEDAATYYCHLSNEDLSTFGGGTKLEIK | –
binds | – | – | humanized anti-CSF1R antibody 0301 (hu0301) (antibody, human IgG4, V domains shown, also called mAb-1) VH: QVQLVQSGAEVKKPGSSVKVSCKASGYTFTDNYMIWVRQAPGQGLEWMGDINPYNGGTTFNQKFKGRVTITADKSTSTAYMELSSLRSEDTAVYYCARESPYFSNLYVMDYWGQGTLVTVSS VL: EIVLTQSPATLSLSPGERATLSCKASQSVDYDGDNYMNWYQQKPGQAPRLLIYAASNLESGIPARFSGSGSGTDFTLTISSLEPEDFAVYYCHLSNEDLSTFGGGTKVEIK | binding [2]: binds
– | binds | binds | MH3 (antibody, V domains shown) VH: QVQLVQSGAEVKKPGSSVKVSCKASGGTFSSYYIIWVRQAPGQGLEWMGDINPYNGTANYAQKFQGRVTITADESTSTAYMELSSLRSEDTAVYYCAREGPYFSNLYVMDYWGQGTLVTVSS VL: EIVLTQSPATLSLSPGERATLSCRASQSVSYEGENYLAWYQQKPGQAPRLLIYAASNRATGIPARFSGSGSGTDFTLTISSLEPEDFAVYYCQLSNQDLLTFGGGTKVEIK | binding [4]: binds; binding [6]: binds
– | binds | binds | MH8 (antibody, V domains shown) VH: QVQLVQSGAEVKKPGSSVKVSCKASGYTFSSYYIIWVRQAPGQGLEWMGDINPYNGTANYAQKFQGRVTITADESTSTAYMELSSLRSEDTAVYYCAREGPYFSNLYVMDYWGQGTLVTVSS VL: EIVLTQSPATLSLSPGERATLSCRASQSVSYEGENYLNWYQQKPGQAPRLLIYAASNRATGIPARFSGSGSGTDFTLTISSPEPEDFAVYYCQLSNEDLLTFGGGTKVEIK | binding [4]: binds; binding [6]: binds
– | binds | binds | MH7 (antibody, V domains shown) VH: QVQLVQSGAEVKKPGSSVKVSCKASGYTFSSYYIIWVRQAPGQGLEWMGDINPYNGTANYAQKFQGRVTITADESTSTAYMELSSLRSEDTAVYYCAREGPYFSNLYVMDYWGQGTLVTVSS VL: EIVLTQSPATLSLSPGERATLSCRASQSVSYQGENYLAWYQQKPGQAPRLLIYDASNRATGIPARFSGSGSGTDFTLTISSLEPEDFAVYYCQLSNQDLLTFGGGTKVEIK | binding [4]: binds; binding [6]: binds
– | binds | binds | MH9 (antibody, V domains shown, Designer clone, human IgG4(S228P)/Ckappa IgG) VH: QVQLVQSGAEVKKPGSSVKVSCKASGYTFSSYYIIWVRQAPGQGLEWMGDINPYNGTANYAQKFQGRVTITADESTSTAYMELSSLRSEDTAVYYCAREGPYFSNLYVMDYWGQGTLVTVSS VL: EIVLTQSPATLSLSPGERATLSCRASQSVSYEGENYLAWYQQKPGQAPRLLIYAASNRATGIPARFSGSGSGTDFTLTISSLEPEDFAVYYCQLSNQDLLTFGGGTKVEIK | –
binds | – | binds | MH6 (antibody, V domains shown, Designer clone, human IgG4(S228P)/Ckappa IgG) VH: QVQLVQSGAEVKKPGSSVKVSCKASGYTFSSYYMIWVRQAPGQGLEWMGDINPYNGGANYAQKFQGRVTITADESTSTAYMELSSLRSEDTAVYYCAREGPYFSNLYVMDYWGQGTLVTVSS VL: EIVLTQSPATLSLSPGERATLSCRASQSVSYEGENYLAWYQQKPGQAPRLLIYAASNRATGIPARFSGSGSGTDFTLTISSLEPEDFAVYYCQLSNQDLLTFGGGTKVEIK | binding [6]: binds
